Measurements: paper PMC8586358 (Nature Communications, 2021)

Tested on: TH+ structures in the Islands of Calleja
Assay: Nanoscale distribution of Fluo-CAR LPs relative to TH-immunopositive dopaminergic varicosities

CN(CCCNC(=O)CCCCC[N+]1=C(/C=C/C=C/C=C2/N(C)c3ccc(S(=O)(=O)O)cc3C2(C)C)C(C)(C)c2cc(S(=O)(=O)[O-])ccc21)C(=O)N[C@H]1CC[C@@H](CCN2CCN(c3cccc(Cl)c3Cl)CC2)CC1 [fluo-cariprazine]
Fluo-CAR STORM density on TH+ structures (norm.to average), actual median (300 nM on acute slices (Fig. 4d), n = 12): 0,1375 | Fluo-CAR STORM density on TH+ structures (norm.to average), actual median (Fig. 5e, n = 12 frames): 0,0
